Measured values from article PMC7072909.

How the values were obtained:
[1] = tested on: GST-GmFLC-like (Glycine max (soybean) cv. Huachun 5); assay: EMSA; conditions: 3 ug protein, 25 pmol probe, LightShift Chemiluminescent EMSA kit (Pierce), 25 pmol biotin probe, pH and temperature not stated, recombinant protein, protein details: GST
[2] = tested on: GST-GmFLC-like (Glycine max (soybean) cv. Huachun 5); assay: competition with a labelled probe; conditions: EMSA, LightShift Chemiluminescent EMSA kit (Pierce), 3 ug protein, 25 pmol biotin probe, pH and temperature not stated, recombinant protein, protein details: GST

## CACTCAAGTGTTGCCAATTAATTGACAAAAAATGGT (double strand) [proGmFT2a probe (-663 to -628), biotin-labeled]
[1]
  binding result: binds

## CACTCAAGTGTTGCAAATTAATTTACAAAAAATGGT (double strand) [mutated CArG unlabeled competitor (called GCC probe in text)]
[2]; unlabeled mutant did not affect binding of biotin-labeled probe
  binding result: no binding

## CACTCAAGTGTTGCCAATTAATTGACAAAAAATGGT (double strand) [proGmFT2a unlabeled competitor]
[2]; 10- to 100-fold excess over biotin-labeled probe, binding slowly weakened
  binding result: binds

Construct, isoform or probe ends are uncertain for at least one entry. For part of these data: No signal at the amounts used counts as a negative.
